Data as given in publication PMC6558801.
Results are given in words; binding and its absence hold for the method and conditions named. In cells and extracts the contact can be indirect. Some results given as binding are weak or reduced against the parent protein; the word gives no strength. For some of these results: Where a sequence is shown, tags or fusion partners need not be part of it.

Experiments:
[1] = biological target: T1, endogenous PLEK2 (pleckstrin-2) of NOZ cells (human (endogenous in NOZ)) (UniProt Q9NYT0); assay: co-IP; endogenous proteins in NOZ cell lysate, anti-PLEK2 and reciprocal anti-EGFR immunoprecipitation, protein A beads
T1 sequence: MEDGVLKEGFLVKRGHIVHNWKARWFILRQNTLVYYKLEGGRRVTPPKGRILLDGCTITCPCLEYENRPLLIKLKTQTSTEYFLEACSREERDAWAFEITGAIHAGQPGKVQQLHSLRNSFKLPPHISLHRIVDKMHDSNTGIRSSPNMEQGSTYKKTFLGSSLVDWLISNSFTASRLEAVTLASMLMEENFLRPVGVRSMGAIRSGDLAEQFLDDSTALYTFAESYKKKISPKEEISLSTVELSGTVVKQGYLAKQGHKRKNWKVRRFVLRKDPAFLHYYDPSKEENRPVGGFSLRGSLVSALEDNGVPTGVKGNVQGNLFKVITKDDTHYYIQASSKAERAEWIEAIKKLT

[2] = biological target: EGFR (epidermal growth factor receptor), overexpressed in 293T cells (UniProt P00533); assay: co-IP; 293T cells overexpressing Flag-PLEK2 and EGFR, IP lysis buffer, antibodies and protein A beads 4 h at 4 °C; also after 50 ng/mL EGF for the indicated times (more PLEK2 bound after 10 or 30 min)
[3] = biological target: endogenous EGFR (epidermal growth factor receptor) of NOZ cells (human (endogenous in NOZ)) (UniProt P00533); assay: co-IP; endogenous proteins in NOZ cell lysate, anti-PLEK2 and reciprocal anti-EGFR immunoprecipitation, protein A beads
[4] = biological target: EGFR (epidermal growth factor receptor), overexpressed in 293T cells (UniProt P00533); assay: co-IP; 293T cells co-expressing Flag-c-CBL, EGFR and PLEK2 (increasing amounts of Myc-PLEK2), immunoprecipitation with Flag antibody

endogenous EGFR (epidermal growth factor receptor) of NOZ cells (from UniProt P00533 25-1210)
binding [1]: binds

B1: Flag-tagged PLEK2 (pleckstrin-2), overexpressed in 293T cells (protein, UniProt Q9NYT0 1-353)
chain: MEDGVLKEGFLVKRGHIVHNWKARWFILRQNTLVYYKLEGGRRVTPPKGRILLDGCTITCPCLEYENRPLLIKLKTQTSTEYFLEACSREERDAWAFEITGAIHAGQPGKVQQLHSLRNSFKLPPHISLHRIVDKMHDSNTGIRSSPNMEQGSTYKKTFLGSSLVDWLISNSFTASRLEAVTLASMLMEENFLRPVGVRSMGAIRSGDLAEQFLDDSTALYTFAESYKKKISPKEEISLSTVELSGTVVKQGYLAKQGHKRKNWKVRRFVLRKDPAFLHYYDPSKEENRPVGGFSLRGSLVSALEDNGVPTGVKGNVQGNLFKVITKDDTHYYIQASSKAERAEWIEAIKKLT
binding [2]: binds

B2: endogenous PLEK2 (pleckstrin-2) of NOZ cells (protein, UniProt Q9NYT0 1-353)
chain: MEDGVLKEGFLVKRGHIVHNWKARWFILRQNTLVYYKLEGGRRVTPPKGRILLDGCTITCPCLEYENRPLLIKLKTQTSTEYFLEACSREERDAWAFEITGAIHAGQPGKVQQLHSLRNSFKLPPHISLHRIVDKMHDSNTGIRSSPNMEQGSTYKKTFLGSSLVDWLISNSFTASRLEAVTLASMLMEENFLRPVGVRSMGAIRSGDLAEQFLDDSTALYTFAESYKKKISPKEEISLSTVELSGTVVKQGYLAKQGHKRKNWKVRRFVLRKDPAFLHYYDPSKEENRPVGGFSLRGSLVSALEDNGVPTGVKGNVQGNLFKVITKDDTHYYIQASSKAERAEWIEAIKKLT
binding [3]: binds

B3: Myc-PLEK2, overexpressed in 293T cells (protein, UniProt Q9NYT0 1-353)
chain: MEDGVLKEGFLVKRGHIVHNWKARWFILRQNTLVYYKLEGGRRVTPPKGRILLDGCTITCPCLEYENRPLLIKLKTQTSTEYFLEACSREERDAWAFEITGAIHAGQPGKVQQLHSLRNSFKLPPHISLHRIVDKMHDSNTGIRSSPNMEQGSTYKKTFLGSSLVDWLISNSFTASRLEAVTLASMLMEENFLRPVGVRSMGAIRSGDLAEQFLDDSTALYTFAESYKKKISPKEEISLSTVELSGTVVKQGYLAKQGHKRKNWKVRRFVLRKDPAFLHYYDPSKEENRPVGGFSLRGSLVSALEDNGVPTGVKGNVQGNLFKVITKDDTHYYIQASSKAERAEWIEAIKKLT
binding [4]: binds
